Measurements: the supplement of paper PMC10735217
Structures can show the parent of a compound that is named as a salt. This is one part of the list. Repeats in this data set agree poorly, so a single value says little.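 Human kidney-derived cells stably carry a construct in which eight TEAD-binding elements drive luciferase, measured by luminescence in a drug-repurposing library screen. A hit is any compound whose signal exceeds the plate mean by more than five robust Z scores.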

System: HEK293A TEAD-LUC reporter
Test: TEAD-luciferase reporter activity (YAP activation), robust Z score vs plate; higher = stronger YAP/TEAD activation
Conditions: 24 h

Row | Compound | TEAD-luciferase reporter activity (compound concentration: 200 nM) | TEAD-luciferase reporter activity (compound concentration: 2 uM) | TEAD-luciferase reporter activity (compound concentration: 10 uM)
1 | CC(C)(C)NC(=O)c1ccccc1C[C@@H](O)[C@H](Cc1ccccc1)NC(=O)[C@@H](CS(=O)c1ccc2ccccc2c1)NS(C)(=O)=O (stereo partly specified) | inactive: 0.091 | inactive: 0.517 | inactive: -0.384
2 | CC(C)(C)c1nc2[nH]c(=S)[nH]c(=O)c2cc1-c1ccc(Cl)cc1 | inactive: 0.203 | inactive: -0.198 | inactive: 1.78
3 | C[C@H](C[C@@H](Cc1ccc(-c2ccccc2)cc1)NC(=O)CCC(=O)O)C(=O)O [Sacubitrilat] | inactive: -0.48 | inactive: 0.323 | inactive: 0.661
4 | CC(C)C[C@H](NC(=O)[C@@H](NC(=O)c1cccc(-c2ccccc2)n1)[C@@H](C)O)B(O)O [delanzomib] | inactive: 1.13 | – | inactive: 3.9
5 | O=C(c1ccc(Cl)cc1)N1CC2(CCN(Cc3ccc(Cl)cc3)CC2)Cc2ccccc21 | inactive: 0.342 | – | inactive: 0.793
6 | O=C(O)[C@H]1CCCN1C(=O)CCCCC(=O)N1CCC[C@@H]1C(=O)O [Miridesap] | inactive: 0.485 | inactive: -0.34 | inactive: 0.853
7 | Cc1nc2c(OCc3ccccc3)cccn2c1CC#N | inactive: 0.807 | inactive: 1.27 | inactive: 1.5
8 | CS(=O)(=O)Oc1ccc(OCCc2ccc(CC(C(=O)O)S(=O)(=O)CCc3ccc(O)cc3)cc2)cc1 (stereo unspecified) | inactive: -0.074 | inactive: -0.756 | inactive: 0.588
9 | O=C(Nc1ccccn1)c1ccc2[nH]c(-c3ccc(NC(=O)C45CC6CC(CC(C6)C4)C5)cc3)nc2c1 | inactive: -1.05 | inactive: -0.512 | inactive: -0.207
10 | N=C(N)NCCC[C@H]1NC(=O)[C@H](Cc2ccc(O)cc2)NC(=O)[C@H]2CCCN2C(=O)[C@@H]2CCCN2C(=O)[C@H](CCCCN)NC(=O)[C@H](CCCNC(N)=O)NC(=O)[C@H](Cc2ccc(O)cc2)NC(=O)[C@H]2CSSC[C@@H](NC(=O)[C@H](CCCNC(N)=O)NC1=O)C(=O)N[C@H](CCCNC(=N)N)C(=O)NCC(=O)N1CCC[C@H]1C(=O)N[C@H](CCCNC(=N)N)C(=O)N[C@H](CCCNC(=N)N)C(=O)N[C@@H](Cc1ccc3ccccc3c1)C(=O)N2 | inactive: -1.75 | inactive: -0.276 | inactive: 0.492
11 | CC(CN1CC(=O)N(CN2CCOCC2)C(=O)C1)N1CC(=O)N(CN2CCOCC2)C(=O)C1 (stereo unspecified) | inactive: -0.725 | inactive: 3.53 | inactive: -0.144
12 | CC(C)=CCOc1cc(NC(=S)c2ccsc2)ccc1Cl | inactive: 0.299 | inactive: -0.81 | inactive: 0.0776
13 | Cc1cc(C(=O)NOCCO)c(Nc2ccc(I)cc2F)n(C)c1=O | inactive: -0.682 | inactive: -0.0757 | inactive: -0.332
14 | CCN1CCC(CC(NC(=O)c2ccc([N+](=O)[O-])cc2)c2ccc(F)cc2)CC1 (stereo unspecified) [Niferidil] | inactive: -1.17 | inactive: -1.21 | inactive: 1.23
15 | CCCCS(=O)(=O)N[C@@H](CNC(=O)c1cc2n(n1)CCN(CCC1CCNCC1)C2=O)C(=O)O | inactive: 0.381 | – | inactive: -0.143
16 | CC1=C(c2cc(-n3ccnc3)cs2)NNC(=O)C1 [Motapizone] | inactive: 0.507 | inactive: -1.47 | inactive: -0.48
17 | CC[C@]1(O)C[C@H]2CN(CCc3c([nH]c4ccccc34)[C@@](C(=O)OC)(c3cc4c(cc3OC)N(C)[C@H]3[C@@](O)(C(N)=O)[C@H](O)[C@]5(CC)C=CCN6CC[C@]43[C@@H]65)C2)C1 | inactive: 4.66 | – | active: 5.99
18 | CC[C@]1(O)C[C@H]2CN(CCc3c([nH]c4ccccc34)[C@@](C(=O)OC)(c3cc4c(cc3OC)N(C)[C@H]3[C@@](O)(C(N)=O)[C@H](O)[C@]5(CC)C=CCN6CC[C@]43[C@@H]65)C2)C1 [vindesine] | – | inactive: 3.97 | –
19 | O=C1CC2CCCC(C1)N2C(=O)c1cccc(Cl)c1 | inactive: 1.11 | – | inactive: 1.17
20 | CC(C)C[C@H](NC(=O)[C@H](CC(C)C)NC(=O)[C@H](Cc1ccccc1)NC(=O)[C@@H](N)CO)C(=O)N[C@@H](CCCNC(=N)N)C(=O)N[C@@H](CC(N)=O)C(=O)N1CCC[C@H]1C(=O)N[C@@H](CC(N)=O)C(=O)N[C@@H](CC(=O)O)C(=O)N[C@@H](CCCCN)C(=O)N[C@@H](Cc1ccc(O)cc1)C(=O)N[C@@H](CCC(=O)O)C(=O)N1CCC[C@H]1C(=O)N[C@@H](Cc1ccccc1)C(=O)O | inactive: 0.0427 | inactive: 0.603 | inactive: -2.39
21 | CC(C)NCC(O)c1ccc2ccccc2c1 (stereo unspecified) | inactive: 2.7 | inactive: -1.19 | inactive: -0.698
22 | CCOP(=O)(CCCCCCOc1ccc(OC)c(F)c1)OCC | inactive: -1.66 | inactive: 1.39 | inactive: 0.381
23 | CN1CCN(NC(=O)CN2CCN(C(=O)c3cc(C(F)(F)F)cc(C(F)(F)F)c3)[C@H](Cc3c[nH]c4ccccc34)C2)CC1 | inactive: 2.25 | inactive: -1.11 | inactive: -0.829
24 | CCc1c(C)nc2cccc(C)n2c1=O [Chinoin-150] | active: 7.34 | inactive: 0.202 | inactive: 0.119

Row | Compound | TEAD-luciferase reporter activity (compound concentration: 200 nM) | TEAD-luciferase reporter activity (compound concentration: 2 uM) | TEAD-luciferase reporter activity (compound concentration: 10 uM)
25 | O=C(NCCNCC(O)COc1ccc(O)cc1)N1CCOCC1 (stereo unspecified) [xamoterol fumarate] | – | inactive: -1.79 | –
26 | O=C(NCCNCC(O)COc1ccc(O)cc1)N1CCOCC1 (stereo unspecified) [Xamoterol hemifumarate] | inactive: -0.439 | – | inactive: -0.61
27 | Cc1cc(N2CCN([C@@H]3CN[C@H](C(=O)N4CCSC4)C3)CC2)n(-c2ccccc2)n1 [teneligliptin] | – | inactive: 1.44 | –
28 | Cc1cc(N2CCN([C@@H]3CN[C@H](C(=O)N4CCSC4)C3)CC2)n(-c2ccccc2)n1 [Teneligliptin Hydrobromide] | inactive: -0.155 | – | inactive: -0.519
29 | O=C1CCC2(CCC(=O)c3cc(Cl)ccc32)C(=O)N1 (stereo unspecified) | inactive: -1.04 | inactive: 1.29 | inactive: 1.21
30 | Nc1nc(N)c2nc(CN3CCSc4cc(C(=O)N[C@@H](CCCC(=O)O)C(=O)O)ccc43)cnc2n1 | inactive: -1.61 | inactive: 0.107 | inactive: -0.987
31 | CCN1CCN(c2ccc(Nc3cc(N(C)C(=O)Nc4c(Cl)c(OC)cc(OC)c4Cl)ncn3)cc2)CC1 [Infigratinib] | inactive: -1.2 | inactive: -0.241 | inactive: -1.05
32 | CCOC(=O)[C@H]1O[C@@H]1C(=O)N[C@@H](CC(C)C)C(=O)NCCC(C)C | inactive: -1.62 | – | inactive: -0.128
33 | CCOC(=O)[C@H]1O[C@@H]1C(=O)N[C@@H](CC(C)C)C(=O)NCCC(C)C [Aloxistatin] | – | inactive: -0.984 | –
34 | CC(=O)NCCC(=O)N1Cc2ccccc2CC2(CCCCN2CC2CCCC2)C1 (stereo unspecified) | inactive: -1.48 | – | inactive: 1.45
35 | C[C@H](CSC(=O)[C@@H](C)NC(=O)C1CCCCC1)C(=O)N1CCC[C@H]1C(=O)O [Moveltipril] | inactive: 0.16 | inactive: 0.846 | inactive: 1.51
36 | N#CC(c1ccc(F)cc1)c1c(Cl)cc(-n2ncc(=O)[nH]c2=O)cc1Cl (stereo unspecified) [Letrazuril] | inactive: 1.34 | inactive: -0.255 | inactive: -0.723
37 | Nc1ccc(C[C@H](NS(=O)(=O)c2cnccc2N[C@H](CO)Cc2ccccc2)C(=O)N2CCC(CCF)CC2)cc1 | inactive: 0.327 | inactive: 1.01 | inactive: 0.0596
38 | O=C(O)c1cnc2n1CCc1ccccc1C2=C1CCN(CCc2ccc(OCc3ccc4ccccc4n3)cc2)CC1 | inactive: -0.894 | inactive: -0.51 | inactive: 0.873
39 | O=C(OCCN1CCCCC1)c1c[nH]c2ccccc12 | inactive: -0.738 | inactive: 2.43 | active: 9.48
40 | COc1ccc(C(N)=O)cc1C(=O)NCc1cccnc1 | inactive: 0.573 | inactive: -1.24 | inactive: 0.692
41 | O=C(NC1CCN(c2nc3ncccc3o2)C1)C1CC1 (stereo unspecified) | inactive: 1.97 | – | inactive: -1.36
42 | OC[C@H]1O[C@H]([S][Au])[C@H](O)[C@@H](O)[C@@H]1O [Aurothioglucose] | active: 5.35 | inactive: -0.282 | inactive: 3.52
43 | COc1ccc(C)cc1NC(=O)Nc1nc2ccc(Nc3ncnc4cc(OCCCN5CCN(C)CC5)c(OC)cc34)cc2s1 | inactive: -1.64 | inactive: 0.924 | inactive: -0.855
44 | CCCc1c(SCCCOc2ccc(C(C)=O)c(OCCCC(=O)O)c2CCC)ccc(C(C)=O)c1O [Tipelukast] | inactive: -2.26 | inactive: -0.246 | inactive: 2.64
45 | CCCC[C@@H]1NC(=O)CCSSC[C@@H](C(N)=O)NC(=O)CNC(=O)[C@H](Cc2c[nH]c3ccccc23)NC(=O)[C@H](CCCNC(=N)N)NC(=O)[C@@H](Cc2ccc3ccccc3c2)NC(=O)[C@H](Cc2c[nH]cn2)NC(=O)[C@H](CCCNC(=N)N)NC1=O | inactive: -0.706 | inactive: -1.91 | inactive: -0.783
46 | O=C(O)CC(c1ccc(OC2CCCC2)cc1)N1C(=O)c2ccccc2C1=O (stereo unspecified) | inactive: -2.15 | inactive: 0.764 | inactive: 1.08
47 | CCCc1ccc(C(O)Cn2ccnc2)cc1 (stereo unspecified) | inactive: 0.0564 | inactive: -0.0234 | inactive: 2.42
48 | CC(=O)O[C@]1(C(C)=O)CC[C@H]2[C@@H]3C=C(C)C4=CC(=O)CC[C@@H]4[C@H]3CC[C@@]21C [Nomegestrol acetate] | inactive: -0.579 | inactive: -0.136 | inactive: -1.06

Two records drawn at random from those above:
Row | Compound | TEAD-luciferase reporter activity (compound concentration: 200 nM) | TEAD-luciferase reporter activity (compound concentration: 2 uM) | TEAD-luciferase reporter activity (compound concentration: 10 uM)
41 | O=C(NC1CCN(c2nc3ncccc3o2)C1)C1CC1 (stereo unspecified) | inactive: 1.97 | – | inactive: -1.36
30 | Nc1nc(N)c2nc(CN3CCSc4cc(C(=O)N[C@@H](CCCC(=O)O)C(=O)O)ccc43)cnc2n1 | inactive: -1.61 | inactive: 0.107 | inactive: -0.987
